Measured values as given in paper PMC7862700.
Only a part is listed here, and it is no random draw. For part of these data: At the low end of the ranking the order means little. The list shows a part of the results. For part of these data: Construct or isoform of the protein are uncertain.

Assays:
[1] = molecular target: T1, GABPA (UniProt Q06546); experiment: DAPPL (digital affinity profiling via proximity ligation, sequencing); conditions: 10 mM Tris-HCl pH 7.5, 50 mM NaCl, 1 mM DTT, 4% glycerol, room temperature, 30 min; GST-TFs on glutathione beads, 16-mer random dsDNA library, 0.1% …; high values mean tight binding; double strand, one strand shown; scale: fold enrichment (6-mer frequency, TF over GST control)
T1 sequence: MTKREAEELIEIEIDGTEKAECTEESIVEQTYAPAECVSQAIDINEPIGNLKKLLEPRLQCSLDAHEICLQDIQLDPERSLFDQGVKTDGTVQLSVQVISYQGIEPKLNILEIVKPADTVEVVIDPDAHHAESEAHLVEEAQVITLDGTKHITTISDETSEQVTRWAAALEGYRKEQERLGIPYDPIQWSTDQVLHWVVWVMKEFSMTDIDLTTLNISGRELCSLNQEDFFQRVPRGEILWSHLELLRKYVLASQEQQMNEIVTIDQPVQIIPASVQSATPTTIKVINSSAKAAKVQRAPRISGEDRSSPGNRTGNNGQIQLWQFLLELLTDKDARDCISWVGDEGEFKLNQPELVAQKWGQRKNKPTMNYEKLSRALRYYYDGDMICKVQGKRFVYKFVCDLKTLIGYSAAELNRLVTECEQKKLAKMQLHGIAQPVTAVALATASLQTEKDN

[2] = molecular target: T2, ETS1 (UniProt P14921); experiment: as above; conditions: 10 mM Tris-HCl pH 7.5, 50 mM NaCl, 1 mM DTT, 4% glycerol, room temperature, 30 min; GST-TFs on glutathione beads, 16-mer random dsDNA library, 0.1% …; high values mean tight binding; double strand, one strand shown; scale: fold enrichment (6-mer frequency, TF over GST control)
T2 sequence: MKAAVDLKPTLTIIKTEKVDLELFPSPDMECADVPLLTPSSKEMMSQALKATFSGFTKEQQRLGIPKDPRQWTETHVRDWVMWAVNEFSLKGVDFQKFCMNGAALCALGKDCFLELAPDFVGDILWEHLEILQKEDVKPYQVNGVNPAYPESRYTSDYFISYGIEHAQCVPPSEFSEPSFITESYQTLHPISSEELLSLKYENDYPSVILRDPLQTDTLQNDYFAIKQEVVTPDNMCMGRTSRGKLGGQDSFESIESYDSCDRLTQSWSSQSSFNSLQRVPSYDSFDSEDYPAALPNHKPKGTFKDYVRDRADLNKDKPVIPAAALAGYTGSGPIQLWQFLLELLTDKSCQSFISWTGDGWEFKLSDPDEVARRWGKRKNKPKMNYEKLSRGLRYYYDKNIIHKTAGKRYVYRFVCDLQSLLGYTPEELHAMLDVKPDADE

Sequence | binding signal [1] | binding signal [2]
CCTTGA | 1.24 | 1.22
AAACCG | 1.07 | 1.09
GCCACT | 1.16 | 1.21
CGCGAA | 1.01 | 1.07
GGATTT | 1.26 | 1.23
CCGACG | 1.27 | 1.26
AGGTTT | 1.08 | 1.07
GTTGAC | 1.19 | 1.09
ATCAAG | 0.914 | 0.998
ACTGAA | 1.24 | 1.24
CTACGG | 1.22 | 1.21
TTTCCA | 1.39 | 1.4
ATGGTG | 1.1 | 1.24
ACTATT | 1.33 | 1.29
CTCGGT | 1.09 | 1.06
GATGCG | 1.16 | 1.11
AGCGCC | 1.07 | 1.08
GATCTA | 0.994 | 1.06
GCGACA | 0.961 | 0.948
CAAATC | 0.994 | 1.13

Sequence | binding signal [1] | binding signal [2]
TGTTGT | 0.991 | 1.16
GGCTTA | 1.17 | 1.15
CCGCGC | 0.958 | 1.2
GGATTC | 0.891 | 0.897
GATTCA | 1.17 | 1.11
TAGGGT | 1.11 | 1.09
TTGGGC | 1.01 | 1.05
GTTGAT | 1.12 | 1.17
CTATGG | 1.21 | 1.26
TACAGA | 1.25 | 1.1
ATGCCA | 1.02 | 1.04
TCACCC | 1.21 | 1.14
TCATCA | 1.17 | 1.13
CTTTGC | 1.39 | 1.34
ACCCTG | 1.06 | 1.15
GAATGC | 0.95 | 1.01
CAACCG | 1 | 1.08
GGACCT | 1.41 | 1.43
CAATGT | 0.964 | 1.1
TAACGT | 0.949 | 0.894

Sequence | binding signal [1] | binding signal [2]
ACGGTA | 0.929 | 0.942
CTGAAG | 1.11 | 0.962
GTGCTA | 1.04 | 1.04
CCCAAA | 1.17 | 1.16
GATTCG | 0.959 | 1.07
TTCAAC | 1.24 | 1.26
TAGATT | 1.18 | 1.32
CCCATC | 1.17 | 1.18
CACGGC | 0.923 | 0.938
TTGGCT | 0.978 | 1.1
TAAGTC | 0.921 | 0.892
AAATCA | 1.19 | 1.22
TGTACA | 1.1 | 1.26
GAAATT | 1.29 | 1.31
GTGTCT | 0.949 | 1.1
ATCAAA | 1.13 | 1.09
ATGTTG | 1.22 | 1.23
CAATTC | 1.19 | 1.32
ACATGC | 1.33 | 1.23
CGCTCG | 1.11 | 1.1

A few values from the list.
binding signal [1], ACATGC is entered as 1.33
binding signal [2], ATCAAA is entered as 1.09
binding signal [2], TAAGTC is entered as 0.892
